This passage reports binding results from patent US20160031951A1.

Sequences of proteins named here, by UniProt entry; tags and fusion partners are left off.
UniProt O95477: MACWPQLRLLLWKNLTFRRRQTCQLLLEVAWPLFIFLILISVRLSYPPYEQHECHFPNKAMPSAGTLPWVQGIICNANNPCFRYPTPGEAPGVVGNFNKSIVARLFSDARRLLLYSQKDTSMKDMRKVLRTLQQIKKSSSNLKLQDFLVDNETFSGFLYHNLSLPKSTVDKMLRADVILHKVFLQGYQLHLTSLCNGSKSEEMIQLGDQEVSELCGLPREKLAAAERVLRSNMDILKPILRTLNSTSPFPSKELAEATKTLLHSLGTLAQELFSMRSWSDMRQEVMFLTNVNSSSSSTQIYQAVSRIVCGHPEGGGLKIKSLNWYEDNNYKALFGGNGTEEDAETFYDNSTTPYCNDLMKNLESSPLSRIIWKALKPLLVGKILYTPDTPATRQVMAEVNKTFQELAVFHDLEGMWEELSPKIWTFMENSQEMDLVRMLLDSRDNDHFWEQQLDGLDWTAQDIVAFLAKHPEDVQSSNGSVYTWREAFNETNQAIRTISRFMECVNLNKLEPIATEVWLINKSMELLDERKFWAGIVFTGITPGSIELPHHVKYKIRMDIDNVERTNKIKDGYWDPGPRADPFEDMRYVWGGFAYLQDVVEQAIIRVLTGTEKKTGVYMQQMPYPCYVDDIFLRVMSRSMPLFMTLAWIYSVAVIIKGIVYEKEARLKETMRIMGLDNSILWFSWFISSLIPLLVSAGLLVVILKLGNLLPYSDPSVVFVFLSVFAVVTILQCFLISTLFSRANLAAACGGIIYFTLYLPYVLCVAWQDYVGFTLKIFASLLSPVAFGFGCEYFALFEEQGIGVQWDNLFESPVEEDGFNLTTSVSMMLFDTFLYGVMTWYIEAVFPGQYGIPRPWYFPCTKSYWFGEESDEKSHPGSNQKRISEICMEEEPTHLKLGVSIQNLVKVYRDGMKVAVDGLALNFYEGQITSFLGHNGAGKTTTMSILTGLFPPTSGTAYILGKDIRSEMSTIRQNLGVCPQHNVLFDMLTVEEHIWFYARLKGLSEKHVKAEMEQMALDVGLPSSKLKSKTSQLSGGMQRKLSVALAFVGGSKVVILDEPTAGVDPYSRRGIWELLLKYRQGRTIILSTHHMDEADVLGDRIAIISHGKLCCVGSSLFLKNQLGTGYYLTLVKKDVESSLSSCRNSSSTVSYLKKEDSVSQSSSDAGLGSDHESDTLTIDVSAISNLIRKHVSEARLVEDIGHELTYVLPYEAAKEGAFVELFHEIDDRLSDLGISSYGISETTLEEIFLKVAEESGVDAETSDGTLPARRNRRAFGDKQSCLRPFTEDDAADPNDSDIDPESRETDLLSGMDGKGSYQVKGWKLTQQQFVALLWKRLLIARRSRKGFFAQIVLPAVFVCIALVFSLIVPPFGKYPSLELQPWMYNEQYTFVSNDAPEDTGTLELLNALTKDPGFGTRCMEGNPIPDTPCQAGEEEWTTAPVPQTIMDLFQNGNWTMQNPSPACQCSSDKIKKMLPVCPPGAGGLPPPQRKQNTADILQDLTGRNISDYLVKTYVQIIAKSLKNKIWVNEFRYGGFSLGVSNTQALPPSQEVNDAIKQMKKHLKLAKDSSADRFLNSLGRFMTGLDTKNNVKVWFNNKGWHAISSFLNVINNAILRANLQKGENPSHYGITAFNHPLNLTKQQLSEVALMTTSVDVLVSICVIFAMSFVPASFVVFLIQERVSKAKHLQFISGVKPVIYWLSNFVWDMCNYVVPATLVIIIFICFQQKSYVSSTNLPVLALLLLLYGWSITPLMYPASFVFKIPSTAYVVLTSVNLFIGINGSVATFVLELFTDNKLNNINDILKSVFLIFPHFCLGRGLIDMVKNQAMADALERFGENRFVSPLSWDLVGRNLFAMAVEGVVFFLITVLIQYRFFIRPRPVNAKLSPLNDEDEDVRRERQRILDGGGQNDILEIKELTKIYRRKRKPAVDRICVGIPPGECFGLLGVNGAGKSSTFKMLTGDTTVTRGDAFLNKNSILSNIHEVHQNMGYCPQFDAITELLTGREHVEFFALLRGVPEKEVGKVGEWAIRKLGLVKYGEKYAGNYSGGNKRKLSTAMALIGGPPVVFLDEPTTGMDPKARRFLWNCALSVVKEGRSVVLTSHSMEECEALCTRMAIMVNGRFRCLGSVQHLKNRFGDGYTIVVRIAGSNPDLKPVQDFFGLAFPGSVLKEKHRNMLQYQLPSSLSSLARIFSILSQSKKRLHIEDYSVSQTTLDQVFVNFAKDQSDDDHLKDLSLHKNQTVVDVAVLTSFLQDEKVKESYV

No constants are given. Whether binding was seen depends on the method and setting. Some binding calls cover weakened binding; strength is not graded here.

This test deals with ABCA1 on BHK cells stably transfected with ABCA1 (UniProt O95477). Description: crosslinking assay and western blot with antibodies to peptide or apoA-I; BHK cells stably transfected with ABCA1. For orientation: In western blotting, separated proteins are transferred to a membrane and probed.

Turning to EVRSKLEEWFAAFREFAEEFLARLKS [ATI-5261], the binding result is listed as “binds”.
